Measured values: US20200102398A1
These are yes or no findings as the source states them, for the method shown. Some results given as binding are weak or reduced against the parent protein; the word gives no strength.

Amino acid sequences for entries named in this document (tags omitted). A change or cut given only in a name is not applied to a line headed by its entry.
UniProt Q02223: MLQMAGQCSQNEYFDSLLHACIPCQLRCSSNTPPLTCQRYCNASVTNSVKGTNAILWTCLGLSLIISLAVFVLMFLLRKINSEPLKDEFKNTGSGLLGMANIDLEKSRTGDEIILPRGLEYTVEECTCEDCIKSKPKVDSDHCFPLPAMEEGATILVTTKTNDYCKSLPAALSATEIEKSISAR

Columns and labels:
[1] = biological target: soluble BCMA (sBCMA) (human) (UniProt Q02223); test: Octet sandwich: sBCMA-mAb1 captured by B-goat anti-rabbit Fc on SA sensor, BCMA offered 1:1 with Ther-Ab2 or irrelevant bispecific (Example 2c)
[2] = biological target: soluble BCMA (sBCMA) (human) (UniProt Q02223); test: Octet sandwich: anti-huFc sensor loaded with Ther-Ab2, then BCMA, baseline, then sBCMA-mAb1 as second antibody (Example 2a)
[3] = biological target: soluble BCMA (sBCMA) (human) (UniProt Q02223); test: Octet sandwich assay: Ther-Ab2 on anti-huFc sensor, BCMA, then rabbit antibody
[4] = biological target: soluble BCMA (sBCMA) (human) (UniProt Q02223); test: Biacore 3000 (SPR), mAb captured by goat anti-rabbit IgG Fc, sBCMA as analyte at 9.4-600 nM (Example 3); concentrations not labelled on the sheet
[5] = biological target: soluble BCMA (sBCMA) (human) (UniProt Q02223); test: Octet sandwich with purified recombinant antibodies: sBCMA-mAb1 captured by B-goat anti-rabbit Fc on SA sensor, irrelevant IgG block, +/- BCMA (Example 2c)
[6] = biological target: soluble BCMA (sBCMA) (human) (UniProt Q02223); test: Octet sandwich assay: capture antibody, +/- BCMA, Ther-Ab2, detection antibody
[7] = biological target: soluble BCMA (sBCMA) (human) (UniProt Q02223); test: Octet sandwich: anti-huFc sensor loaded with Ther-Ab2, then BCMA, baseline, then sBCMA-mAb2 (quantified supernatant) as second antibody (Example 2a)
[8] = biological target: soluble BCMA (sBCMA) (human) (UniProt Q02223); test: Octet sandwich: sBCMA-mAb3 on BCMA held by captured sBCMA-mAb1 and already carrying Ther-Ab2 (Example 2c)
[9] = biological target: soluble BCMA (sBCMA) (human) (UniProt Q02223); test: Octet sandwich assay (legend of FIG. 3)
[10] = biological target: soluble BCMA (sBCMA) (human) (UniProt Q02223); test: Octet sandwich: B-goat anti-rabbit Fc on SA sensor, sBCMA-mAb1 captured, irrelevant IgG block, Ther-Ab2 or irrelevant bispecific +/- BCMA, then sBCMA-mAb3 (Example 2c)
[11] = biological target: soluble BCMA (sBCMA) (human) (UniProt Q02223); test: Octet sandwich assay: sBCMA-mAb1 captured, Ther-Ab2 +/- BCMA, then sBCMA-mAb3

Measured: binding

B1: sBCMA-mAb1 (antibody, V domains shown)
VH: QSLEESGGDLVKPGAFLTLTCTASGFSFSSGYYICWVRQAPGKGLEWIACIYTGSSGSTDYASWAKGRFTISKTSSTTVTLQMTSLTAADTATYFCARDYGHSYWNLWGPGTLVTVSS
VL: DIVMTQTPASVEAAVGGTVTIKCQASEDISSRLAWYQQKPGQPPKLLIGAASTLASGVSSRFKGSRSGTEYTLTISDLECADAATYYCLGDYYVSSYGNAFGGGTEVVVKG
binds: [1] | [2] | [3] | [4] | [5] | [6]

B2: sBCMA-mAb2 (antibody, V domains shown)
VH: QSLEESGGDLVKPGASLTLTCTASGFSFSSSYWICWVRQAPGKGLEWIACIYAGSGDFTYYASWAKGRFTVSKTSSTTVTLQMTSLTAADTATYFCARDAATSYYSHYFTLWGPGTLVTVSS
VL: DVVMTQTPASVSEPVGGTVTIKCQASQSIYSGLAWYQQKPGQPPKLLIYDASDLASGVPSRFSGSGYGTEFTLTISGVQCEDAATYYCQVTHYESGVPLGGGTEVVVEG
binds: [7] | [3] | [4]

B3: sBCMA-mAb3 (antibody, V domains shown)
VH: QEQLEESGGGLVKPGGTLTLTCKASGMDFSSYYYMCWVRQAPGKGLEWIACIFSDSGGHTAYASWAEGRFTISKTSSTTVTLQMTSLTVADTATYFCARDRRDVVYIRDLWGPGTLVTVSS
VL: ALVMTQTPSPVSAAVGGTVTISCQSSESVYNNNALAWYQQKPGQPPKLLIYGASSLASGVPSRFKGSGSGTQFTLTISDLECDDAATYYCAGYKRYNNDGHAFGGGTEVVVKG
binds: [8] | [9] | [4] | [10] | [6] | [11]
